PubChem BioAssay AID1671195 | Yale University | 2021

- Screen: 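Genes whose knockdown alters LDL uptake in liver cancer cells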 (primary screen)
- System: human Huh7 hepatoma cells
- Reagent: siRNA pool against human genes, 18 nM
- Duration: about 2 to 2.5 days of knockdown, then 8 h LDL uptake
- Challenge: DiI-labelled LDL at 30 µg/ml for 8 h, in lipoprotein-deficient serum medium
- Measurement: 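Fluorescent LDL signal imaged in cells, scaled to the plate median, robust z-score for each replicate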
- Scale: robust z-score: higher = more LDL uptake after knockdown
- Hit rule: 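a gene counts as active if at least two replicate z-scores exceed ±2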
In all, the deposit lists about 22,000 reagents; below is an unselected part. In the full data, about 1,510 (6.9%) are marked active. 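Active includes knockdowns raising or lowering LDL uptake; positive z-scores mean more uptake, negative mean less.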 A number with no mark means an inactive call.

LRRC8C
- robust z-score, replicate 1: 0.66
- robust z-score, replicate 2: 1.93
- robust z-score, replicate 3: 1.56

P2RX6
- robust z-score, replicate 1: 0.456
- robust z-score, replicate 2: 0.162
- robust z-score, replicate 3: 0.302

LOC441498 (retired record)
- robust z-score, replicate 1: 0.0689
- robust z-score, replicate 2: 0.022
- robust z-score, replicate 3: 0.563

PAH
- robust z-score, replicate 1: -1.52
- robust z-score, replicate 2: -1.49
- robust z-score, replicate 3: -1.56

RTN3
- robust z-score, replicate 1: -0.0288
- robust z-score, replicate 2: 0.601
- robust z-score, replicate 3: 0.787

SPG11
- robust z-score, replicate 1: 1.63
- robust z-score, replicate 2: 1.15
- robust z-score, replicate 3: 0.706

LRRC30
- robust z-score, replicate 1: -0.336
- robust z-score, replicate 2: -0.282
- robust z-score, replicate 3: -0.0769

CALCR
- robust z-score, replicate 1: 4.1 (active)
- robust z-score, replicate 2: 1.75
- robust z-score, replicate 3: 3.15

EED
- robust z-score, replicate 1: -1.42
- robust z-score, replicate 2: 0.838
- robust z-score, replicate 3: -0.206

PDLIM5
- robust z-score, replicate 1: -0.649
- robust z-score, replicate 2: -1.06
- robust z-score, replicate 3: -1.58

COPRS
- robust z-score, replicate 1: 2.6
- robust z-score, replicate 2: -0.446
- robust z-score, replicate 3: 0.816

C5orf22
- robust z-score, replicate 1: 0.93
- robust z-score, replicate 2: 1.41
- robust z-score, replicate 3: 2.11

NKIRAS1
- robust z-score, replicate 1: -0.467
- robust z-score, replicate 2: -1.42
- robust z-score, replicate 3: 0.361

AP3S1
- robust z-score, replicate 1: 0.72
- robust z-score, replicate 2: 1.35
- robust z-score, replicate 3: 0.405

RUFY2
- robust z-score, replicate 1: -1.17
- robust z-score, replicate 2: -0.736
- robust z-score, replicate 3: -1.36

FLJ45684 (retired record)
- robust z-score, replicate 1: 0.842
- robust z-score, replicate 2: 0.327
- robust z-score, replicate 3: 0.421
